In paper PMC10959363:

Columns and labels:
[1] = target: T1, SERPINE1 mRNA binding protein 1, HA-tagged (SERBP1-HA) (UniProt Q6AXS5); experiment: co-IP; KMM cells lentivirally transduced with SERBP1-HA and the partner (SIRT1-7, SIRT3-Myc or vIL-6-Flag; also SIRT3-Myc with or without vIL-6-Flag); lysate immunoprecipitated with anti-HA antibody on magnetic beads at 4°C overnight, washed with TBST, Western blotting
T1 sequence: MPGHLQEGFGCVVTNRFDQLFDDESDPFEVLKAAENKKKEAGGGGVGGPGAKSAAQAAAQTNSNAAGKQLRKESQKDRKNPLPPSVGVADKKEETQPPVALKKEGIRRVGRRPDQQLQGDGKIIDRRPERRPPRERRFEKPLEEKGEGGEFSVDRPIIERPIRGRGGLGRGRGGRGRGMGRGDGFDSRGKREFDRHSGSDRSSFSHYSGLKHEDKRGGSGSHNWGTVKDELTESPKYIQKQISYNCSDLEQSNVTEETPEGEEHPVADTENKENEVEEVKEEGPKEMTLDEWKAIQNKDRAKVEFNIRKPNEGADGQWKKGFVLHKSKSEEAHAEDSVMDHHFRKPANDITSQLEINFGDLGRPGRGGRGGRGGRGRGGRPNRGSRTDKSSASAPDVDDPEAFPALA

[2] = target: T2, SERPINE1 mRNA binding protein 1 (SERBP1), endogenous (rat (endogenous in MM and KMM cells)) (UniProt Q6AXS5); experiment: co-IP; endogenous proteins in MM and KMM cell lysates; immunoprecipitated with anti-SERBP1 antibody, immunoblotted with anti-SIRT3, 6 and 7 antibodies
T2 sequence: T1 sequence

Substance	binding [1]	binding [2]
SIRT6 (lentiviral, SIRTs-Myc) (enzyme)	binds	
Sirtuin 3, Myc-tagged (SIRT3-Myc) (enzyme)	binds	
Sirtuin 3 (SIRT3), endogenous (rat (endogenous in MM and KMM cells)) (enzyme)		binds
SIRT7 (lentiviral, SIRTs-Myc) (enzyme)	binds	

These are yes or no findings as the source states them, for the method shown. In cells and extracts the contact can be indirect. Binding can be weak; no strength is given. For some of these results: Sequences can lack the tags named with a protein.
